These are yes or no findings as the source states them, for the method shown. For part of these data: In cells and extracts the contact can be indirect. Some entries that bind do so weakly or less than the wild type. For part of these data: Sequences can lack the tags named with a protein.
T1: F-box (FBX) protein At3g03360 (Arabidopsis thaliana) (UniProt Q84W80)
T1 sequence: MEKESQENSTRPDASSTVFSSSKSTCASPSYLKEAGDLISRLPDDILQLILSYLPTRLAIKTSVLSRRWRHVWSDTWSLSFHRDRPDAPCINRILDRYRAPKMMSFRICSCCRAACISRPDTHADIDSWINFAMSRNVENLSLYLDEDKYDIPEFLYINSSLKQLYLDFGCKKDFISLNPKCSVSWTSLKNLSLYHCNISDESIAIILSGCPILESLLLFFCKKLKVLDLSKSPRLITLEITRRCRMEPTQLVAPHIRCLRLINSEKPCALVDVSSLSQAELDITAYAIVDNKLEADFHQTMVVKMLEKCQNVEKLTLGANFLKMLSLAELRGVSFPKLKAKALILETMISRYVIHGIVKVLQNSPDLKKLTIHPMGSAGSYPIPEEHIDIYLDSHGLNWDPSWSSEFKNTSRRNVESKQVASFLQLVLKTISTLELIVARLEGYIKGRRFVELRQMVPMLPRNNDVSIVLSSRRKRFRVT

T2: F-box (FBX) protein At1g30790 (Arabidopsis thaliana) (UniProt Q9SY20)
T2 sequence: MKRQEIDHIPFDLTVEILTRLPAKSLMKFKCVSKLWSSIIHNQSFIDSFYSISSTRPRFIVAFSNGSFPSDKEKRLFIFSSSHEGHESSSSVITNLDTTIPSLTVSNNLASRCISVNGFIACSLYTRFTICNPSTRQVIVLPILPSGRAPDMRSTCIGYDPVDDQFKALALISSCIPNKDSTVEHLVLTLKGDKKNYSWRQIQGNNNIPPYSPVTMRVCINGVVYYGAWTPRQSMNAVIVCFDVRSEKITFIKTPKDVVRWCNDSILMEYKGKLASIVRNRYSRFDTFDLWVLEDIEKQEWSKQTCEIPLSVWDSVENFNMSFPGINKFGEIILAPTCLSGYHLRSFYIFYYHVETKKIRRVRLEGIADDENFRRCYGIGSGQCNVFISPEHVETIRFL

T3: F-box (FBX) protein At1g30790, BiFC fusion (Arabidopsis thaliana) (UniProt Q9SY20)
T3 sequence: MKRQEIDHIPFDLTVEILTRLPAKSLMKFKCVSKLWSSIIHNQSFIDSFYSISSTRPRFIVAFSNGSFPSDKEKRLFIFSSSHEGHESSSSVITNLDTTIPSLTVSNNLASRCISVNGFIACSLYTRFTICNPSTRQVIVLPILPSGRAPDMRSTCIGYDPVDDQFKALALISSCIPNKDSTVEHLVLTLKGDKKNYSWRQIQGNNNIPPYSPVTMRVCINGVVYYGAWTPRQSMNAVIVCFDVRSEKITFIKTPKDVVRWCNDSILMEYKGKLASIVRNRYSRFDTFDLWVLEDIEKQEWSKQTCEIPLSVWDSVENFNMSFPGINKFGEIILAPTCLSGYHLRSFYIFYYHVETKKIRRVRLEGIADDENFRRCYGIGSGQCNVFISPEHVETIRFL

T4: F-box (FBX) protein At3g04660, BiFC fusion (Arabidopsis thaliana) (UniProt Q9SR08)
T4 sequence: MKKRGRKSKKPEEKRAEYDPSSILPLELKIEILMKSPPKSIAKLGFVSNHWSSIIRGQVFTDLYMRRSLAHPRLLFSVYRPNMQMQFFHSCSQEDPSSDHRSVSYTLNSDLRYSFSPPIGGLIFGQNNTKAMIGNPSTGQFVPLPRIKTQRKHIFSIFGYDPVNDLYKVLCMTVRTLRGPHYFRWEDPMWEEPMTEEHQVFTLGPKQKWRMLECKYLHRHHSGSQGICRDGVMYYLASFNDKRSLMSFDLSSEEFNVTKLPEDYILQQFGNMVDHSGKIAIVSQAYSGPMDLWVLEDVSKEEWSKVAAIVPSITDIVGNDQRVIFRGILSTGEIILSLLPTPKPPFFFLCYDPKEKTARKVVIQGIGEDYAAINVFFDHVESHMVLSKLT

T5: F-box (FBX) protein At3g03360, BiFC fusion (Arabidopsis thaliana) (UniProt Q84W80)
T5 sequence: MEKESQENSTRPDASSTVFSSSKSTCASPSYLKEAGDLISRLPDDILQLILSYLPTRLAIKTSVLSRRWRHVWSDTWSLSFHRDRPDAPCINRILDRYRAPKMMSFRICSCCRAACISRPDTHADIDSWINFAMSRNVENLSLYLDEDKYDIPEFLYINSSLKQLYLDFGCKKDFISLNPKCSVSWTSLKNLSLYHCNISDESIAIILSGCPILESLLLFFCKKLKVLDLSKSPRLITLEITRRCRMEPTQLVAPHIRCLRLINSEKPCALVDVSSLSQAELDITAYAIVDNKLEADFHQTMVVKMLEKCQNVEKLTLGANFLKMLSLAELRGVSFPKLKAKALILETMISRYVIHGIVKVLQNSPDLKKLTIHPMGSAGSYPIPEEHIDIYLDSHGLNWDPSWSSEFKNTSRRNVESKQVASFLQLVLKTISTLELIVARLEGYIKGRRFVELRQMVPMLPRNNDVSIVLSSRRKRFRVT

T6: F-box (FBX) protein At5g21040, BiFC fusion (Arabidopsis thaliana) (UniProt Q94AD8)
T6 sequence: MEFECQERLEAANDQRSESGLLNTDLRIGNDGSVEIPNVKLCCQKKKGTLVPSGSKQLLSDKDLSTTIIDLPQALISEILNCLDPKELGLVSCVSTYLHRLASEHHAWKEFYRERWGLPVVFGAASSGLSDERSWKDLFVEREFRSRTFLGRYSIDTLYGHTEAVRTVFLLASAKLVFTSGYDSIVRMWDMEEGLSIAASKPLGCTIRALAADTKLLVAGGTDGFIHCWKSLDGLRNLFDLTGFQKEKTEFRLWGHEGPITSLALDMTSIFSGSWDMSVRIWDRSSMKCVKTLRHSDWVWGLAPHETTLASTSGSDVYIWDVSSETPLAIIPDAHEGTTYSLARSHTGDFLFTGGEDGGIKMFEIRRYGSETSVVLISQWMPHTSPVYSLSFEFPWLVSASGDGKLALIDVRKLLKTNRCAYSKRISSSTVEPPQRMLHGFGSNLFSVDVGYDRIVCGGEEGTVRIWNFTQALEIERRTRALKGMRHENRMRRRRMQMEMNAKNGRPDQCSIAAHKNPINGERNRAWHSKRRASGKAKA

T7: F-box (FBX) protein At5g21040 (Arabidopsis thaliana) (UniProt Q94AD8)
T7 sequence: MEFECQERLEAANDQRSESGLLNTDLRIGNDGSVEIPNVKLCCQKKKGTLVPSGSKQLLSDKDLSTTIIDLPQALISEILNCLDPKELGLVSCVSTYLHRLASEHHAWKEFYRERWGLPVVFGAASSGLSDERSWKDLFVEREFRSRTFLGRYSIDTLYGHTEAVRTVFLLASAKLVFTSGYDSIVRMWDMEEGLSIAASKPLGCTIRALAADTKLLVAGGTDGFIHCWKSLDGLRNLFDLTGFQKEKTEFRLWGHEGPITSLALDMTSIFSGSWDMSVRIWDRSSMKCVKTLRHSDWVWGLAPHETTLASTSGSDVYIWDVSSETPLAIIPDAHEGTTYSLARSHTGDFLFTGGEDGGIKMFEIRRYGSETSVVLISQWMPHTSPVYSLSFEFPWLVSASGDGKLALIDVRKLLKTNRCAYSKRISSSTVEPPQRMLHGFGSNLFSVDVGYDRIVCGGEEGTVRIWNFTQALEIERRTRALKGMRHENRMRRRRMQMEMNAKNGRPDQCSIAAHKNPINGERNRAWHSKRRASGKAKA


Key:
[1] = target: T1, F-box (FBX) protein At3g03360 (Arabidopsis thaliana); experiment: two-hybrid; FBX fused to Gal4-DB, ASK fused to Gal4-AD; yeast mating; selection on SD without Leu, Trp, His, Ade (high strength) or without Leu, Trp, His (low strength); every combination examined twice
[2] = target: T2, F-box (FBX) protein At1g30790 (Arabidopsis thaliana); experiment: as above
[3] = target: T3, F-box (FBX) protein At1g30790, BiFC fusion (Arabidopsis thaliana); experiment: split reporter; FBX in pSCYCE (SCFP3A 174-328), ASK in pSCYNE (SCFP3A 1-173), CaMV 35S promoter; Agrobacterium GV3101 infiltrated into Nicotiana tabacum leaves, 28 C for 3 days; fluorescence microscopy
[4] = target: T4, F-box (FBX) protein At3g04660, BiFC fusion (Arabidopsis thaliana); experiment: as above
[5] = target: T5, F-box (FBX) protein At3g03360, BiFC fusion (Arabidopsis thaliana); experiment: as above
[6] = target: T6, F-box (FBX) protein At5g21040, BiFC fusion (Arabidopsis thaliana); experiment: as above
[7] = target: T7, F-box (FBX) protein At5g21040 (Arabidopsis thaliana); experiment: two-hybrid; FBX fused to Gal4-DB, ASK fused to Gal4-AD; yeast mating; selection on SD without Leu, Trp, His, Ade (high strength) or without Leu, Trp, His (low strength); every combination examined twice

Row | binding [4] | binding [5] | binding [6] | further results | Binder
1 | – | – | – | binding [1]: binds; binding [2]: binds | Arabidopsis SKP1-LIKE 16 (ASK16) (protein, UniProt O81055 1-170) MSSNKIVLTSSDDESFEVEEAVARKLKVIAHMIDDDCADKAIPLENVTGNILALVIEYCKKHVLDDVDDSDDSTEATSENVNEEAKNELRTWDAEFMKEFDMETVMKLILAVNYLNVQDLLGLTCQTVADHMKDMSPEEVRELFNIENDYTPEEEDAIRKENAWAFEDLK
2 | binds | binds | – | binding [3]: binds | Arabidopsis SKP1-LIKE 17 (ASK17), BiFC fusion (protein, UniProt Q9SL65 1-150) MSSKKIVLTSSDDECFEIDEAVARKMQMVAHMIDDDCADKAIRLQNVTGKILAIIIEYCKKHVDDVEAKNEFVTWDAEFVKNIDMDTLFKLLDAADYLIVIGLKNLIAQAIADYTADKTVNEIRELFNIENDYTPEEEEELRKKNEWAFN
3 | binds | binds | – | binding [3]: binds | Arabidopsis SKP1-LIKE 19 (ASK19), BiFC fusion (protein, UniProt O81058 1-200) MSSKKIVLTSSDGESFKVEEVVARKLQIVGHIIEDDCATNKIPIPNVTGEILAKVIEYCKKHVEDDDDVVETHESSTKGDKTVEEAKKKPDDVAVPESTEGDDEAEDKKEKLNEWDAKFMKDFDIKTIFDIILAANYLNVQGLFDLCSKTIADYIKDMTPEEVRELFNIENDFTPEEEEAIRNENAWTFEQDGKQQVPKP
4 | binds | binds | – | – | Arabidopsis SKP1-LIKE 3 (ASK3), BiFC fusion (protein, UniProt Q9SL93 1-163) MAETKKMIILKSSDGESFEVEEAVAVESQTIKHMIEDDCVDNGIPLPNVTGAILAKVIEYCKKHVEAAAEAGGDKDFYGSTENHELKTWDNDFVKVDHPTLFDLLRAANYLNISGLLDLTCKAVADQMRGKTPAQMREHFNIKNDYTPEEEAEVRNENRWAFE
5 | binds | binds | binds | – | Arabidopsis SKP1-LIKE 4 (ASK4), BiFC fusion (protein, UniProt Q9LNT9 1-163) MAETKKMIILKSSDGESFEIEEAVAVKSQTIKHMIEDDCADNGIPLPNVTGAILAKVIEYCKKHVEAAAEAGGDKDFYGSAENDELKNWDSEFVKVDQPTLFDLILAANYLNIGGLLDLTCKAVADQMRGKTPEQMRAHFNIKNDYTPEEEAEVRNENKWAFE
6 | binds | – | binds | – | Arabidopsis SKP1-LIKE 13 (ASK13), BiFC fusion (protein, UniProt Q9M1X5 1-154) MSKMVMLLSSDGESFQVEEAVAVQSQTIAHMIEDDCVANGVPIANVTGVILSKVIEYCKKHVVSDSPTEESKDELKKWDAEFMKALEQSSTLFDVMLAANYLNIKDLLDLGCQTVADMITGKKPDEIRALLGIENDFTPEEEEEIRKENQWAFE
7 | binds | – | binds | – | Arabidopsis SKP1-LIKE 18 (ASK18), BiFC fusion (protein, UniProt Q9SY65 1-158) MSSNKILLTSSDGESFEIDEAVARKFLIIVHMMEDNCAGEAIPLENVTGDILSKIIEYAKMHVNEPSEEDEDEEAKKNLDSWDAKFMEKLDLETIFKIILAANYLNFEGLLGFASQTVADYIKDKTPEEVREIFNIENDFTPEEEEEIRKENAWTFNE
8 | – | – | – | binding [7]: binds | Arabidopsis SKP1-LIKE 11 (ASK11) (protein, UniProt O49484 1-152) MSSKMIVLMSSDGQSFEVEEAVAIQSQTIAHMVEDDCVADGIPLANVESKILVKVIEYCKKHHVDEANPISEEDLNNWDEKFMDLEQSTIFELILAANYLNIKSLLDLTCQTVADMIKGKTPEEIRSTFNIENDFTPEEEEAVRKENQWAFE

From PMC3499479
